Assay results reported in article PMC8397740.
No constants are given. Whether binding was seen depends on the method and setting. In cells and extracts the contact can be indirect. Some entries that bind do so weakly or less than the wild type.

Sequences of proteins named here, by UniProt entry; tags and fusion partners are left off. A change or cut given only in a name is not applied to a line headed by its entry.
UniProt P63104: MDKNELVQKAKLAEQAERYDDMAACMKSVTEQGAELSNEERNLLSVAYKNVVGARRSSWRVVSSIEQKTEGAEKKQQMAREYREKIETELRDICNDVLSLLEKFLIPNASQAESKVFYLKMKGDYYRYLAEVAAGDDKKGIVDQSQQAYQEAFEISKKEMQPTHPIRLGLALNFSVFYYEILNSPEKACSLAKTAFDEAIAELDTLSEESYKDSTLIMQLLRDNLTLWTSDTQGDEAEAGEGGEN
UniProt Q9Y4D1: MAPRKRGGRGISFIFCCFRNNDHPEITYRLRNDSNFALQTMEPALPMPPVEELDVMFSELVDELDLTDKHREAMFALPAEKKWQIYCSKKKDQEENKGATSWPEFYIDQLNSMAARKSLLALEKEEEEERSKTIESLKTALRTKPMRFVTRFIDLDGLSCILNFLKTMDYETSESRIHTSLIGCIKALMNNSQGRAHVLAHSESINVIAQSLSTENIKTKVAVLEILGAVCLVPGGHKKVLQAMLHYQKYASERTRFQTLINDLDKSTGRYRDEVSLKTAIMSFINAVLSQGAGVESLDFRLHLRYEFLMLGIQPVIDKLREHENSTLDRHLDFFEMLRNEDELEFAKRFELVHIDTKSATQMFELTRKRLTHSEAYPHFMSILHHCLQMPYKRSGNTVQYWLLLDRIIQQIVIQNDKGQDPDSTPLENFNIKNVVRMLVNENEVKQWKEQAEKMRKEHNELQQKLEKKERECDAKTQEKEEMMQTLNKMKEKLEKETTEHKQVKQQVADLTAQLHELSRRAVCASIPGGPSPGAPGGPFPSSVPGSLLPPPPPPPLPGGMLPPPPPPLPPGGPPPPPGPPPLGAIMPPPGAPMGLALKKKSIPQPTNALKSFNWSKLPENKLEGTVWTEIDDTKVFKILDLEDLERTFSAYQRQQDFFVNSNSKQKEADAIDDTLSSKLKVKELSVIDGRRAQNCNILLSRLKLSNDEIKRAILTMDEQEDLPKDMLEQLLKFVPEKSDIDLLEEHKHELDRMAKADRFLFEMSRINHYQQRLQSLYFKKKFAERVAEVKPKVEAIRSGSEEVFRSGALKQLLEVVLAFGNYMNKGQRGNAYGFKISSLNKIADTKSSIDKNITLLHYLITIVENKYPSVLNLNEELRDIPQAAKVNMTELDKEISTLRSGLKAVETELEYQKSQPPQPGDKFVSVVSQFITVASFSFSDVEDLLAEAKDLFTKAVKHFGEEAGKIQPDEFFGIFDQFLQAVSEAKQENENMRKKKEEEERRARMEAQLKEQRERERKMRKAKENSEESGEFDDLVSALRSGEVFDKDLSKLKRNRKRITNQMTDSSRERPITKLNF

What was measured:
[1] = target: GFP-tagged YWHAZ (tyrosine 3-monooxygenase/tryptophan 5-monooxygenase activation protein zeta) (UniProt P63104); assay: co-IP; MCF-7 and MDA-MB-231 cells expressing FLAG-DAAM1 and GFP-YWHAZ, lysed in NP-40 buffer; anti-FLAG or anti-GFP antibody (normal rabbit IgG as control) at 4 °C overnight, protein A/G agarose beads; immunoblotting
FLAG-DAAM1-Y652F = FLAG-DAAM1-Y652F (UniProt Q9Y4D1); assay: co-IP; DAAM1-Y652F and full-length YWHAZ constructs transfected (Fig. S1); cells and precipitating antibody not stated
[2] = target: FLAG-full-DAAM1 (Dishevelled-associated activator of morphogenesis 1) (UniProt Q9Y4D1); assay: co-IP; MCF-7 and MDA-MB-231 cells expressing FLAG-DAAM1 and GFP-YWHAZ, lysed in NP-40 buffer; anti-FLAG or anti-GFP antibody (normal rabbit IgG as control) at 4 °C overnight, protein A/G agarose beads; immunoblotting

“FLAG-full-DAAM1 (Dishevelled-associated activator of morphogenesis 1) (from UniProt Q9Y4D1 1-1078)” was tested, and the binding [1] was “binds”.
For “GFP-tagged YWHAZ (tyrosine 3-monooxygenase/tryptophan 5-monooxygenase activation protein zeta) (from UniProt P63104 1-245)”, the binding (FLAG-DAAM1-Y652F) was “binds” and the binding [2] was “binds”.
